Assay results taken from PubChem BioAssay AID743255 (National Center for Advancing Translational Sciences (NCATS), 2014).
The whole screen tested about 390,000 compounds, of which about 910 (0.23%) were called active. Inconclusive results, whose numbers are uncertain, are shown with a selection of clear calls. Calls follow the shape of the dose curve; as a rule, active = well fitted inhibition curve with a large enough effect; inconclusive = small, poorly fitted or top-dose-only effect; inactive = no such curve, though single readings can be large or run the other way. A potency beside an inconclusive call is a rough fit, not a confirmed value.
Also: nearly all actives have a fitted effect of over 60% in size.
Potency is read from the fitted curve at half-maximal effect.

By UniProt entry, the sequences of proteins in these tests, tags left out. Where a name states a change or a piece, a line headed by the entry shows the natural chain unless it says otherwise.
UniProt O94782: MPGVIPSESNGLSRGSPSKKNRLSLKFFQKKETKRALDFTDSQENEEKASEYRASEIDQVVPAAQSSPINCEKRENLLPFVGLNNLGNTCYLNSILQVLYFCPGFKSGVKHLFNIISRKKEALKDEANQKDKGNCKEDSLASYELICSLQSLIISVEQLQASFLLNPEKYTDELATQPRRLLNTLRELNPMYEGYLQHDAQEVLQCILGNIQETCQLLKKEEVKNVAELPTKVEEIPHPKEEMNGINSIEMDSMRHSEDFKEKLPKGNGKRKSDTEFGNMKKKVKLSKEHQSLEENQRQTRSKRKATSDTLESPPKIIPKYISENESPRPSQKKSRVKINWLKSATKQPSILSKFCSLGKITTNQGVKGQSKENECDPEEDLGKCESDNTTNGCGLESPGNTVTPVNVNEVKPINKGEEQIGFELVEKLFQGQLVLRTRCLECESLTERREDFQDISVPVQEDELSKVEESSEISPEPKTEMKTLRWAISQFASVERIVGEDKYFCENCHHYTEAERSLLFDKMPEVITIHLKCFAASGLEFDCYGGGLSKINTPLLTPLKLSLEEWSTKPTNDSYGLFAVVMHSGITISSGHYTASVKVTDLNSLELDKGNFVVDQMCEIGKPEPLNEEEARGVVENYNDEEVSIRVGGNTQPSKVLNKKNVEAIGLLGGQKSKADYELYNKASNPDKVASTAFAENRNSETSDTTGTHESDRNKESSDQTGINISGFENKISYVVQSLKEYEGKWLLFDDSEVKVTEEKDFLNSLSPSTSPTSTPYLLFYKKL

These molecules were tested against Ubiquitin carboxyl-terminal hydrolase 1 (Homo sapiens) (UniProt O94782) (assay: Inhibitors of USP1/UAF1: Primary Screen). Conditions: recombinant USP1/UAF1, Ub-Rhodamine cleavage fluorescence; series mostly up to 57.1 µM.
Method in brief: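 High-throughput fluorogenic screen: 1nM USP1/UAF1 complex, Ub-Rho substrate 150nM final, 50mM HEPES pH 7.8 with 0.5mM EDTA, 0.1 mg/ml BSA, 1mM TCEP and 0.01% Tween-20.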
In the case of `CCCCN1CC(c2nc3ccccc3n2CCCCOc2ccc(C)cc2C)CC1=O` (stereo not drawn), the Potency is reported as inconclusive: 28.2 µM [inhibitor, partial curve]. In the case of `O=C(Nc1ccccc1)C1=C[C@H](c2ccc(C(F)(F)F)cc2)C[C@H](OCc2ccc(CO)cc2)O1`, the Potency is reported as inconclusive: 22.4 µM [inhibitor, partial curve]. For `COc1cccc(NC(=O)c2ccc(S(=O)(=O)N3CCCC3)cc2)c1`, the Potency was inconclusive: 5.62 µM [inhibitor, full curve, poor fit]. `Cc1c(N(C)C(=O)c2ccco2)c(=O)n(-c2ccccc2)n1C` was tested, and the Potency was “inactive”. With `CCc1ccc(OCCCSc2nc(-c3ccc(C(C)(C)C)cc3)nc3cc(=O)[nH]n23)cc1` the Potency was inconclusive: 35.5 µM [inhibitor, partial curve, poor fit]. In the case of `O=C(NCCn1cc(SCc2ccc(F)cc2)c2ccccc21)c1c(F)cccc1F`, the Potency is reported as inconclusive: 7.94 µM [inhibitor, partial curve]. In the case of `CSc1ncc(Cl)c(C(=O)Nc2ccc(S(=O)(=O)N3CCC(C)CC3)cc2)n1`, the Potency is reported as inconclusive: 0.224 µM [inhibitor, full curve, poor fit]. For `FC(F)(F)c1nnc(-c2ccccc2)nc1Sc1ccc(Cl)cc1`, the Potency was inconclusive: 50.1 µM [inhibitor, partial curve, poor fit]. With `c1cc2c3c(cccc3c1)NC(c1ccc3c(c1)OCO3)N2` the Potency was inconclusive: 44.7 µM [inhibitor, partial curve, poor fit]. With `Cc1ccc(Cn2c(=O)n(-c3ccccc3)c(=O)c3ccc(C(=O)NCc4ccco4)cc32)cc1` the Potency was inconclusive: 0.631 µM [inhibitor, full curve, poor fit]. With `CN(C)c1ccc(N=Cc2cccn2C)cc1` the Potency was “inactive”. With `CC(=O)C1=C(C)NC(SCC(=O)c2ccc(Cl)cc2Cl)=C(C#N)C1c1ccco1` (stereo not drawn) the Potency was inconclusive: 28.2 µM [inhibitor, partial curve]. In the case of `Cc1ccccc1NC(=O)c1ccc2nc(Cc3ccccc3)oc2c1`, the Potency is reported as inconclusive: 44.7 µM [inhibitor, partial curve]. For `CC(=O)c1ccc(NS(=O)(=O)c2cc(-c3cnc(C4CC4)o3)ccc2C)cc1`, the Potency was inconclusive: 15.8 µM [inhibitor, partial curve]. `Cc1cc(C(=O)Nc2ccc(N3CCOCC3)cc2)c2ccccc2n1` was tested, and the Potency was “inactive”. For `CCOC(=O)c1ccc(NC(=O)c2c(NCc3cccs3)sc3c2CCCCC3)cc1`, the Potency was inconclusive: 39.8 µM [inhibitor, partial curve, poor fit]. `O=C(O)CC(NC(=O)c1sc2ccccc2c1Cl)c1ccc(OC2CCCC2)cc1` (stereo not drawn) was tested, and the Potency was inconclusive: 50.1 µM [inhibitor, partial curve, poor fit]. With `Cc1ccc(-c2cn3c(n2)sc2cc(C(=O)NCCCN4CCCCC4)ccc23)cc1` the Potency was inconclusive: 0.316 µM [inhibitor, full curve]. With `COc1ccc2cc3cc(C(=O)N4CCN(c5ccc(C(C)=O)cc5)CC4)sc3nc2c1Cl` the Potency was inconclusive: 50.1 µM [inhibitor, partial curve, poor fit]. In the case of `COc1ccc(C(=O)Nc2cc(-c3cccc(C)c3)nn2-c2ccccc2)cc1`, the Potency is reported as inconclusive: 28.2 µM [inhibitor, single point]. In the case of `COc1ccc(C2=NO[C@@H]3C(=O)N(c4ccc(C)cc4C)C(=O)[C@H]23)cc1OC`, the Potency is reported as “inactive”. `Oc1ccc(-c2csc(Nc3ncccn3)n2)cc1O` was tested, and the Potency was “inactive”. In the case of `C#CCOCCOCCOCCNc1nc(N2CCN(C(=O)CCCCCCCCCCNC(=O)[C@H]([C@@H](C)CC)n3cc(CCCCN=C(N)N)nn3)CC2)nc(N2CCN(C(=O)CCCCCCCCCCNC(=O)[C@H](CO)n3cc(CCCSC)nn3)CC2)n1`, the Potency is reported as active: 28.2 µM. In the case of `CN(CC(=O)NCc1cccnc1)S(=O)(=O)c1ccc2c(c1)c(=O)n(C)c(=O)n2C`, the Potency is reported as inconclusive: 0.355 µM [inhibitor, full curve]. In the case of `O=C1NC(c2cccc3ccccc23)Nc2ccccc21` (stereo not drawn), the Potency is reported as inconclusive: 50.1 µM [inhibitor, partial curve]. In the case of `C/C(=N\Nc1ccc([N+](=O)[O-])cc1)c1ccco1`, the Potency is reported as inconclusive: 0.447 µM [inhibitor, full curve, poor fit]. For `Cc1ccc(C)c(N2CCN(C(=O)CCC(=O)Nc3ccc4nc(N5CCCCC5)cc(C)c4c3)CC2)c1`, the Potency was inconclusive: 31.6 µM [inhibitor, partial curve]. For `CCN(CC)CCOc1cc2c(nn1)Oc1ccccc1N2C`, the Potency was “inactive”. `O=C(CCN1C(=O)c2ccccc2S1(=O)=O)Nc1ccc2c(c1)OCCO2` was tested, and the Potency was inconclusive: 0.631 µM [inhibitor, full curve, poor fit]. With `O=C(Nc1ccc2ccccc2c1)c1ccccc1[N+](=O)[O-]` the Potency was inconclusive: 44.7 µM [inhibitor, partial curve, poor fit]. With `Cc1nnc(N2C(=O)c3oc4ccccc4c(=O)c3C2c2ccc(C(C)(C)C)cc2)s1` (stereo not drawn) the Potency was inconclusive: 0.794 µM [inhibitor, full curve, poor fit]. In the case of `COc1ccc(NC(=O)c2cccc(N3CCCS3(=O)=O)c2)cc1OC`, the Potency is reported as “inactive”. For `CN(C)c1ccc(C=Cc2cnccn2)cc1`, the Potency was inconclusive: 10 µM [inhibitor, partial curve, poor fit]. `Cc1ccc(Cn2c(CN3CCC(C(=O)NCc4ccccc4C)CC3)cc3ccccc32)cc1` was tested, and the Potency was inconclusive: 0.251 µM [inhibitor, full curve, poor fit]. `COCCn1c(C)cc(/C=N/NC(=O)c2cc3ccccc3cc2O)c1C` was tested, and the Potency was inconclusive: 39.8 µM [inhibitor, partial curve, poor fit]. With `O=C(NC1CCCCCCC1)C1CCC(CNc2c(N3CCCC3)c(=O)c2=O)CC1` (stereo not drawn) the Potency was inconclusive: 0.316 µM [inhibitor, full curve, poor fit]. `O=C(c1ccc(CN2CCc3ccccc3C2)cc1)N1CCCCC1` was tested, and the Potency was inconclusive: 44.7 µM [inhibitor, partial curve, poor fit]. In the case of `CCc1ccc(CNC(=O)c2c3c(nc4ccccc24)C(=O)N(C2CCCCC2)C3)cc1`, the Potency is reported as inconclusive: 2.82 µM [inhibitor, full curve, poor fit]. In the case of `CCNc1cc(Nc2c(C)n(C)n(-c3ccccc3)c2=O)c([N+](=O)[O-])c2nonc12`, the Potency is reported as inconclusive: 8.91 µM [inhibitor, single point]. For `CC1CC1C(=O)OCC(=O)Nc1ccc(N=Nc2ccccc2)cc1` (stereo not drawn), the Potency was inconclusive: 39.8 µM [inhibitor, partial curve]. In the case of `CCC(C)NC(=O)CSc1nc2cc3c(cc2c(=O)n1CCCC(=O)NCCc1ccc(OC)c(OC)c1)OCO3` (stereo not drawn), the Potency is reported as inconclusive: 5.01 µM [inhibitor, partial curve]. With `CCN1C[C@@H]2[C@@H]3C(=O)N(Cc4ccccc4)C(=O)[C@@H]3[C@](CC)(C1=O)N2C(=O)c1ccc(C(F)(F)F)cc1` the Potency was inconclusive: 89.1 µM [inhibitor, partial curve, poor fit]. With `O=C(N/N=C/c1ccc(N2CCOCC2)cc1)c1ccccc1OCCOc1ccccc1` the Potency was inconclusive: 63.1 µM [inhibitor, partial curve, poor fit]. For `COc1ccc(NC(=S)N(CCc2c(C)[nH]c3ccccc23)Cc2ccco2)cc1`, the Potency was “inactive”. With `Cc1ccc(OCC(=O)NNC(=O)C2CSC3(C)CCC(=O)N23)cc1C` (stereo not drawn) the Potency was inconclusive: 0.282 µM [inhibitor, full curve]. `CCN(CC)C(=O)[C@H]1CC(CC(=O)NCc2cccc(C(F)(F)F)c2)C(=O)N2CCc3c([nH]c4ccccc34)[C@]12C` (stereo partly drawn) was tested, and the Potency was inconclusive: 44.7 µM [inhibitor, partial curve, poor fit]. `CSCCC(NS(=O)(=O)c1ccc(C)cc1)C(=O)N1CCCC1` (stereo not drawn) was tested, and the Potency was inconclusive: 2.24 µM [inhibitor, full curve, poor fit]. `COC(=O)c1cc2oc3ccccc3c2n1Cc1nc(-c2ccccc2Cl)oc1C` was tested, and the Potency was “inactive”. In the case of `CCC1CCCCN1S(=O)(=O)c1ccc(NC(=O)c2cc(=O)c3c(C)cc(C)cc3o2)cc1` (stereo not drawn), the Potency is reported as inconclusive: 0.355 µM [inhibitor, full curve]. With `COCCCNC(=O)NC(CCC(C)C)c1c(-n2cccc2)sc2c1CCN(C)C2` (stereo not drawn) the Potency was “inactive”. `O=C(COC(=O)c1ccc([N+](=O)[O-])s1)NCCc1ccccc1` was tested, and the Potency was inconclusive: 31.6 µM [inhibitor, single point]. In the case of `O=C(Nc1ccc([N+](=O)[O-])cc1)/C(=C/c1cccc([N+](=O)[O-])c1)NC(=O)C1CCCCC1`, the Potency is reported as inconclusive: 3.55 µM [inhibitor, partial curve]. In the case of `Cc1cc(Cl)cc(C)c1OCCn1ccnc1`, the Potency is reported as inconclusive: 4.47 µM [inhibitor, full curve, poor fit]. In the case of `CCc1ccc2c(c1)C(C)=CC(C)(C)N2`, the Potency is reported as inconclusive: 39.8 µM [inhibitor, partial curve]. `CC(=O)c1ccc(OCC(=O)Nc2ccc3c(c2)OCO3)cc1` was tested, and the Potency was inconclusive: 10 µM [inhibitor, partial curve, poor fit]. For `CCCn1c(=S)[nH]c2cc(C(=O)N3CCN(c4ccc(F)cc4)CC3)ccc2c1=O`, the Potency was inconclusive: 0.112 µM [inhibitor, full curve, poor fit]. For `Cc1cccc(C2=NN(c3ccccc3)[C@@H](C(=O)N3CCOC3=O)[C@@H]2c2ccc(F)cc2)c1`, the Potency was inconclusive: 50.1 µM [inhibitor, partial curve, poor fit]. In the case of `CC(=O)c1ccc(OC(=O)C2c3ccccc3Oc3ccccc32)cc1`, the Potency is reported as inconclusive: 44.7 µM [inhibitor, partial curve, poor fit].
